Experimental data reported in article PMC7360063, “Brassinosteroids regulate root meristem development by mediating BIN2-UPB1 module in Arabidopsis” (PLoS Genetics, 2020).
Construct, isoform or probe ends are uncertain for at least one entry. A negative result means that nothing was seen under these conditions. At least one verdict was read from the data and is not stated in words by the source.

Tested on: MBP-BES1 (Arabidopsis thaliana)
Test: EMSA
Settings: EMSA: 25 mM HEPES-KOH pH 8.0, 50 mM KCl, 1 mM DTT, 10% glycerol, 20 ul, at least 30 min on ice, about 1 ng probe, 5% native PAGE in TBE, recombinant protein

“AGTGATGATAATCATGTGAGTGTCTGGACATCGAGTTGTA (double strand) [UPB1 promoter E5/mE6 probe]”: no binding (label: biotin or unlabeled).
“AGTGATGATAATTCTGGAAGTGTCTGGACATCGAGTTGTA (double strand) [UPB1 promoter mE5/mE6 probe]”: no binding (label: biotin or unlabeled).
“AGTGATGATAATCATGTGAGTGCATGTGCATCGAGTTGTA (double strand) [UPB1 promoter E5/E6 probe]”: binds (label: biotin (Fig 6 legend), Methods say 32P).
